# According to patent publication US20030215820A1:
# Protein sequences, listed by entry. Tags and fused reporters are not part of them. Lines headed by an entry give the natural chain unless they say otherwise; changes in a name come on top. Residues count along the entry.
# UniProt P19438, residues 30-455: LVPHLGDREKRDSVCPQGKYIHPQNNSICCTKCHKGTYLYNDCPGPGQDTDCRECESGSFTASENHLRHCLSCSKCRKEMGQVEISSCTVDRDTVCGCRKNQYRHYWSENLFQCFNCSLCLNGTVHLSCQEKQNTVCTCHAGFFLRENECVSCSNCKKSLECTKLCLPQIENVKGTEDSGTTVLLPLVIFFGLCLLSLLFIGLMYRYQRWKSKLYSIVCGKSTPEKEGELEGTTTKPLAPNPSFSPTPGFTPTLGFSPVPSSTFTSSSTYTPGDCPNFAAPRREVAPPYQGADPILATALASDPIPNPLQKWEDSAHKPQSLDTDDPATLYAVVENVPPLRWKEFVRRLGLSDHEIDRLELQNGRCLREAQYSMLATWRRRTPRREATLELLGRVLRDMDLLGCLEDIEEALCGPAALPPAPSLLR
# UniProt Q9NZ08: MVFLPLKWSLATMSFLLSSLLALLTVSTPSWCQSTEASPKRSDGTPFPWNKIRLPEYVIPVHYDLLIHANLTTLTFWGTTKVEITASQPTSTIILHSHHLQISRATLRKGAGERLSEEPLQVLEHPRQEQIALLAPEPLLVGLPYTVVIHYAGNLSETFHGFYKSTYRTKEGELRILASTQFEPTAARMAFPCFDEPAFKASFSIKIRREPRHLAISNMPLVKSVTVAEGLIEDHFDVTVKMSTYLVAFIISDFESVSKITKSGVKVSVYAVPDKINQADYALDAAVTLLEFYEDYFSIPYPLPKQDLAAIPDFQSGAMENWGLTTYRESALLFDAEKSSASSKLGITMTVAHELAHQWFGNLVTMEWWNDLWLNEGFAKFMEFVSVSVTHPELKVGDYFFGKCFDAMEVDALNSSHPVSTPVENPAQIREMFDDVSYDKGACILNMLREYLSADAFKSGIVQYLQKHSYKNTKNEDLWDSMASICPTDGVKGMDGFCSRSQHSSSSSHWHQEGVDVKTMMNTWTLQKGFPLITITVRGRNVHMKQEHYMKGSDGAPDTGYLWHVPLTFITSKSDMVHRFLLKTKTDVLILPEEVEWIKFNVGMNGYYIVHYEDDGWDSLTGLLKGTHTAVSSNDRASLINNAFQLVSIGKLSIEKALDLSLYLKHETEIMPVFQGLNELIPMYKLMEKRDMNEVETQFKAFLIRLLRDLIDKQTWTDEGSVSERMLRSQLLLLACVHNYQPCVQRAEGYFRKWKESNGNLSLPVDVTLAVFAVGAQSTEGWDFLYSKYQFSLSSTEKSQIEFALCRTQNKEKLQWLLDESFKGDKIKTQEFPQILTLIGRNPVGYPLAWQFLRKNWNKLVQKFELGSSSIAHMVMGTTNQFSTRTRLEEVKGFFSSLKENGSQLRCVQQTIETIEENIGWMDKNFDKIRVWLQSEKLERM
# No constants are given. Whether binding was seen depends on the method and setting. Binding seen in cells or lysates may run through a third protein. Some results given as binding are weak or reduced against the parent protein; the word gives no strength.
# Key:
# [1] = molecular target: type I, 55 kDa tumor necrosis factor receptor (TNFR1) of NCI-H292 cells (human) (UniProt P19438); test: co-immunoprecipitation from NCI-H292 membrane fractions, Western immunoblot
# [2] = molecular target: type I, 55 kDa tumor necrosis factor receptor (TNFR1) of NCI-H292 cells (human) (UniProt P19438); test: co-immunoprecipitation with anti-TNFR1 antibody from membrane fractions of stably transfected NCI-H292 lines, immunoblot with anti-ARTS-1 antiserum
substance,measurement,setting,value
"ARTS-1 polypeptide (aminopeptidase regulator of type I, 55 kDa tumor necrosis factor receptor ectodomain shedding) in NCI-H292 and other human cells (from UniProt Q9NZ08 1-941) (enzyme)",binding,[1],binds
same,binding,[2],binds
